Laboratory results taken from US20210292680A1, “MULTIFUNCTIONAL AROMATIC ALCOHOLS FOR PERSONAL CARE, HOME CARE AND INDUSTRIAL AND INSTITUTIONAL COMPOSITIONS” (EMERALD KALAMA CHEMICAL, LLC, priority 2018, published 2021).

Assay: Process defoaming evaluation (modified ASTM E2407-04)
Details: 0.4 wt. % aromatic alcohol; 2.0 wt. % SLES solution
Protocol: Defoaming evaluation: Process defoaming was tested using a modified ASTM method (E2407-04 (2015) Standard Test Method for Effectiveness of Defoaming Agents). 250 mL of a 2.0 wt. % surfactant solution was blended at the highest speed setting for 30 seconds, then let sit for 3 minutes. The initial foam height is measured, and then 0.4 wt. % defoamer is dropped onto the surface of the foam. The blender is turned on low speed and the solution is mixed for 1 minute. Foam height is re-measured after an additional five minutes of sitting.
Process defoaming was tested using a modified ASTM method (E2407-04 (2015) Standard Test Method for Effectiveness of Defoaming Agents) to assess surfactants and determine if there was a relationship between foam destabilization and surfactant type. Two different surfactant solutions were tested. 2.0 wt. % surfactant solutions were prepared as controls using BioSoft® N1-7 and SLES. Thereafter, 0.4 wt. % aromatic alcohols (R=3 and R=4) were added to each surfactant solution for comparison to the controls. After agitation to generate foam, the percent of initial foam volume loss was far less for the control (without aromatic alcohols).

Row | Compound | defoaming effect (foam loss, % of initial foam volume)
1 | CC(CO)Cc1ccccc1 (centres unmarked) [2-methyl-3-phenylpropanol] | very mild defoaming effect
2 | OCCCc1ccccc1 [3-phenylpropanol] | very mild defoaming effect
